These results are taken from article PMC6054531.

Amino acid sequences for entries named in this document (tags omitted). A change or cut given only in a name is not applied to a line headed by its entry. Chains listed by the source or under a name are the forms on record and can include a tag or linker.
human F508del-CFTR (P13569, form named): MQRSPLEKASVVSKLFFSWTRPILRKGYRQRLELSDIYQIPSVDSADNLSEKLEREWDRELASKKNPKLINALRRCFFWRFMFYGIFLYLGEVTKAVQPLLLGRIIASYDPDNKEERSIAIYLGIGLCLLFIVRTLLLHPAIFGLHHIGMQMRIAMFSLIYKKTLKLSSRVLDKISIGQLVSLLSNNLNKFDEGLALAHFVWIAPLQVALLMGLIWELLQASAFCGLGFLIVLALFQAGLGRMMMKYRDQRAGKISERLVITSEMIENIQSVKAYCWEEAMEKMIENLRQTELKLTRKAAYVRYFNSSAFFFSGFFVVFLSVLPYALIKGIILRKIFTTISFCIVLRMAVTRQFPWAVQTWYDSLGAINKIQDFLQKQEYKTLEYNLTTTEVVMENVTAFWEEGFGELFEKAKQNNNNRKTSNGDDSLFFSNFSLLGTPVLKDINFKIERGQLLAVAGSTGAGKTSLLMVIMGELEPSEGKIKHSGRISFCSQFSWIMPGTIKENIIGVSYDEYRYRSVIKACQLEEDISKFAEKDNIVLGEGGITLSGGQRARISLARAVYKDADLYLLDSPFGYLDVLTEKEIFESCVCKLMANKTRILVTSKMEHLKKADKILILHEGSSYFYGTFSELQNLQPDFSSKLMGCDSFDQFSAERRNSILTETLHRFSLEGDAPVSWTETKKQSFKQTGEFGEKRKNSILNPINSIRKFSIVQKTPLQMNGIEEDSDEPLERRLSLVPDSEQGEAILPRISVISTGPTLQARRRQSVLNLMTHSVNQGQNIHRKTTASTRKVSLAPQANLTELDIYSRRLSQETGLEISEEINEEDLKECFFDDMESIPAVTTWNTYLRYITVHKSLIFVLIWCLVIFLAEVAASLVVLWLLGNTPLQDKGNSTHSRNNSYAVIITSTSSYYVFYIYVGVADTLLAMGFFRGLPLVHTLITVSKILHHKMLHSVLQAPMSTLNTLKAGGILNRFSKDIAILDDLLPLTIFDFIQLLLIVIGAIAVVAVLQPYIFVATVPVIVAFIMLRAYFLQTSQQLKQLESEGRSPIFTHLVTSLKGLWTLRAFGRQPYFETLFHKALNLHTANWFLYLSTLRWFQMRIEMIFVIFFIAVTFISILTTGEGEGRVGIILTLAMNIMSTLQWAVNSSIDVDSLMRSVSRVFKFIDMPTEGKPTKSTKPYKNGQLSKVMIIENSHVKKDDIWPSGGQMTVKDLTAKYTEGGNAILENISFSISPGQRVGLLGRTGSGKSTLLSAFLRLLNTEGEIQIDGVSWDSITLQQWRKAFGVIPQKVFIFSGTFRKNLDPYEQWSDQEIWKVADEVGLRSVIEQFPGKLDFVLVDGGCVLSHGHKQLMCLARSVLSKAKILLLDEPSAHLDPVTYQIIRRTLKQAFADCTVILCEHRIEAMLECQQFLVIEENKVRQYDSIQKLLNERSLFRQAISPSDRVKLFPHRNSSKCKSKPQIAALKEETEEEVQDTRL

In this test the target is T1, wild-type SLC6A14 bearing a C-terminal FLAG tag (UniProt Q9UN76).
T1 sequence: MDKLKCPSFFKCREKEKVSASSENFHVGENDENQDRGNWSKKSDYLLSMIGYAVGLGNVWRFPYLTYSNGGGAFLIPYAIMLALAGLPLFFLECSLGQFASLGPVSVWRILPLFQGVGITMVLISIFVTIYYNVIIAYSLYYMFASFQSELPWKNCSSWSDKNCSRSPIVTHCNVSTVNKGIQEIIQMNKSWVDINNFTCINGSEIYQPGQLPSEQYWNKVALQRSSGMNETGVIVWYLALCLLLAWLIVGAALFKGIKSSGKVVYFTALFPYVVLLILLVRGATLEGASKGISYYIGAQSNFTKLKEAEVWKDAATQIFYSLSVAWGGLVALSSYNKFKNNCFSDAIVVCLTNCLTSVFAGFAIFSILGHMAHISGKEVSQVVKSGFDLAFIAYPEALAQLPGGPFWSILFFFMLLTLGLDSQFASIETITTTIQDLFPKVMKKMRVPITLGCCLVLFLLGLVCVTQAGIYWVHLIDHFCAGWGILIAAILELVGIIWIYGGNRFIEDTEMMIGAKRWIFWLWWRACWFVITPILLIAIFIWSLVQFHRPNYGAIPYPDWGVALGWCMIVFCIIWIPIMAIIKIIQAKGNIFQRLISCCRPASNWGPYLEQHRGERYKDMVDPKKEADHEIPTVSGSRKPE
In words: co-IP; BHK cells stably expressing F508del-CFTR, transfected with SLC6A14-FLAG or empty vector, overnight at 27°C; lysis in 50 mM EDTA, 150 mM Tris base, 50 mM NaCl, 1% Triton X-100, pH 7.4; IP with anti-FLAG antibody (or anti-CFTR 596 antibody, per the legend) and protein A/G agarose at 4°C; western blot.

No constants are given. Whether binding was seen depends on the method and setting. In cells and extracts the contact can be indirect. Sequences can lack the tags named with a protein.

In the case of “human F508del-CFTR (from UniProt P13569 1-1480)”, the binding entry is recorded as “no binding”.
